Part of at least one peptide drawing is inferred or uncertain, most often the ends. Square brackets hold non-standard residues; d marks the D form. Peptide text beside a SMILES is read from it. Nle = CCCC[C@H](N)C(=O)O; dNMeA = CN[C@H](C)C(=O)O
Experiments:
[1] = system: cells of rat pituitary glands; experiment: in vitro GH release from cultured rat pituitary cells, compared side by side with synthetic hpGRF(1-40)-OH as standard; format: cell-based; details: for Comparison %: GH release relative to standard hGRF(1-40)-OH = 100%, equimolar concentrations, incubation 3 to 4 hours, immunoreactive GH by radioimmunoassay
Description: To determine the relative effectiveness of certain representative synthetic peptides to promote the release of growth hormone, in vitro assays are carried out using synthetic hpGRF(1-40)-OH as a standard in side-by-side comparison with equimolar concentrations of the representative analogs which have been synthesized. Cultures are used which include cells of rat pituitary glands removed some three to five days previously. Such cultures are considered optimal for the secretion of growth hormone and are used for the comparative testing, in the general manner described in Vale et al. Endocrinology, 91, 562-572 (1972) and as more particularly described in Vale et al. Endocrinology, 112, 1553-1555 (1983). Incubation with the substance to be tested is carried out for 3 to 4 hours, and aliquots of the culture medium are removed and processed to measure their contents in immunoreactive GH(ir GH) by a well-characterized radioimmunoassay.

[2] = system: urethane-anesthetized male rats; experiment: in vivo GH levels in blood after intravenous injection into urethane-anesthetized male rats; design: species or system rat; details: measured at both 10 and 30 min. after IV injection; GH by radioimmunoassay

SMILES | Comparison % [1] [%] | potency relative to hGRF(1-40)-OH with respect to blood levels of pituitary GH [2] | minimum effective concentration ([1]; in vitro GH release, rat pituitary cell cultures)
CCCC[C@H](NC(=O)[C@@H](NC(=O)[C@H](CC(=O)O)NC(=O)[C@H](CCC(N)=O)NC(=O)[C@H](CC(C)C)NC(=O)[C@H](CC(C)C)NC(=O)[C@H](CCCCN)NC(=O)[C@H](CCCNC(=N)N)NC(=O)[C@H](C)NC(=O)[C@H](CO)NC(=O)[C@H](CC(C)C)NC(=O)[C@H](CCC(N)=O)NC(=O)CNC(=O)[C@H](CC(C)C)NC(=O)[C@@H](NC(=O)[C@H](CCCCN)NC(=O)[C@H](CCCNC(=N)N)NC(=O)[C@H](Cc1ccc(O)cc1)NC(=O)[C@H](CO)NC(=O)[C@H](CC(N)=O)NC(=O)[C@@H](NC(=O)[C@H](Cc1ccccc1)NC(=O)[C@@H](NC(=O)[C@H](C)NC(=O)[C@H](CC(=O)O)NC(=O)[C@@H](C)N(C)C(=O)[C@@H](N)Cc1ccc(O)cc1)[C@@H](C)CC)[C@@H](C)O)C(C)C)[C@@H](C)CC)C(=O)N[C@@H](CC(N)=O)C(=O)N[C@@H](CCCNC(=N)N)C(N)=O [[D-NMA^2, Nle^27, Asn^28]-hGRF(1-29)-NH2] (H-Y[dNMeA]DAIFTNSYRKVLGQLSARKLLQDI[Nle]NR-NH2) | 520 |  | 
CCCC[C@H](NC(=O)[C@@H](NC(=O)[C@H](CC(=O)O)NC(=O)[C@H](CCC(N)=O)NC(=O)[C@H](CC(C)C)NC(=O)[C@H](CC(C)C)NC(=O)[C@H](CCCCN)NC(=O)[C@H](CCCNC(=N)N)NC(=O)[C@H](C)NC(=O)[C@H](CO)NC(=O)[C@H](CC(C)C)NC(=O)[C@H](CCC(N)=O)NC(=O)CNC(=O)[C@H](CC(C)C)NC(=O)[C@@H](NC(=O)[C@H](CCCCN)NC(=O)[C@H](CCCNC(=N)N)NC(=O)[C@H](Cc1ccc(O)cc1)NC(=O)[C@H](CO)NC(=O)[C@H](CC(N)=O)NC(=O)[C@@H](NC(=O)[C@H](Cc1ccccc1)NC(=O)[C@@H](NC(=O)[C@H](C)NC(=O)[C@H](CC(=O)O)NC(=O)[C@@H](C)N(C)C(=O)[C@@H](N)Cc1ccc(O)cc1)[C@@H](C)CC)[C@@H](C)O)C(C)C)[C@@H](C)CC)C(=O)N[C@@H](CO)C(=O)N[C@@H](CCCNC(=N)N)C(N)=O [[D-NMA^2, Nle^27]-hGRF(1-29)-NH2] | 1330 | approximately 6 times | about 1 picomolar

Source: patent publication US4528190A, “GRF Analogs IV” (The Salk Institute For Biological Studies, priority 1984, dated 1985)
